Patent US20230242902A1, “A HIGHLY ERROR-PRONE […] R[…] FOR TARGETED CONTINUOUS EVOLUTION IN VIVO” (The Regents of the University of California, priority 2017, published 2023)
Several values for one entry are separate records, joined by “and”; a condition that tells them apart may be missing. Equal entries are not always repeated.

Test system: p1
Assay: p1 copy number by p1-encoded mKate2 fluorescence
Type: cell-based, S. cerevisiae
Conditions: p1-encoded mKate2, flow cytometry, OR-Y24 strains, calibration curve
Method: A calibration curve was established to correlate p1 copy number, determined via quantitative PCR (qPCR), with fluorescence of p1-encoded mKate2 (Table 1). Five TP-DNAP1 variants representing a wide range of copy numbers were transformed into ORY24 and passaged until w.t. p1 was displaced. The five OR-Y24 strains were grown to saturation, diluted 1:10,000 to mimic p1 fluctuation tests, and grown in triplicate 100 μL cultures and duplicate 40 mL cultures. 100 μL saturated cultures were subject to fluorescence measurement of mKate2 (ex/em=561 nm/620 nm, bandwidth=15 nm) on a flow cytometer (Invitrogen Attune NxT). Whole-cell DNA extracts were prepared from 40 mL cultures and used as templates for qPCR measurement of p1-encoded leu2 (Q180*), as described previously (Ravikumar et al., 2014). p1-encoded LEU2 was PCR amplified with qPCR-Leu2F and qPCR Leu2R; and genomic LEU3 was PCR amplified with qPCR-Leu3F and qPCR-Leu3R using SyBR Green (Fisher Scientific) master mix.
To assay p1 copy number for large-scale p1 fluctuation tests, additional replicates of OR-Y24 strains were grown from the 1:10,000 dilution in triplicate and saturated cultures were subject to fluorescence measurement via flow cytometry. Fluorescence measurements were converted to copy number with the linear calibration curve.
To assay relative p1 copy number for small-scale p1 fluctuation tests, an additional 200 μL culture of OR-Y24 strains were grown from the 1:10,000 dilution. 200 μL saturated cultures were subject to an OD600 measurement and fluorescence measurement of mKate2 (ex/em=588 nm/633 nm), using a microplate reader (TECAN Infinite M200 PRO). A linear relationship was assumed between p1 copy number and OD600-normalized mKate2 fluorescence. Copy numbers were calculated from normalization to a w.t. TP-DNAP1 control.
For a few large-scale p1 fluctuation tests, p1 copy number was assayed by the method of small scale p1 fluctuation tests (i.e. microplate reader measurement). For these experiments, mutant TP-DNAP1 p1 copy numbers were calculated by normalization to a w.t. TP-DNAP1 control. The copy number of this control was assumed to be the average w.t. TP-DNAP1 copy number from all large-scale p1 fluctuation tests that used flow cytometry measurements.
TP-DNAP1 plasmids were isolated from these strains and subject to Sanger sequencing. 210 unique variants were identified and the corresponding plasmids were re-transformed into OR-Y24. Transformed strains were passaged in SC-UH until w.t. p1 was displaced, and subject to p1 copy number measurement in triplicate. Four high copy variants were directly subject to qPCR measurements for validation. To test the suppressor activity of the G410H mutation, which yields increased p1 copy number, this amino acid change was added to several low-activity TP-DNAP1 variants. p1 copy number was similarly assayed for these strains.

| Molecule | mKate2 fluorescence (a.u.) | also measured |
| --- | --- | --- |
| I777K: TP-DNAP1 variant, encoded by SEQ ID NO:3 (protein) MDYKDKALNDLRNVYADFDSLPLDFRQILIKDRATLLQKEDVEKKILERQEDAKKYAEYLKQSEIPERISLPNIKRHKGVSISFEETSEDMVLEPRPFIFDGLNIRCFRRETIFSLKNKILNMVKESSSFKNVSRQSVSFMYFKIFNKGKVIASTKSVNIYEDKIDERLEDLCNNFDDVLKKIIDVTYGYESLFVSETYSYVIFYAKSIYFPQPRCVNNWGNNIPNILTFDSFKLFTANKNNVSCIKQCSRFLWQKDFNTLEEMIEYKNGNICIVTPQLHINDVRDIKSFNDIRLYSESPIKTFSVIDNTITYLFYFKEHLGVIFNITKSRHDRRVTKFSPLSKFSDVKNITVCFDIESYFDPEKESNQVNIPFICCASIIYNKVIGNIVDFEGRDCVAQMIEYVVDICGELNISSVELIAHNGGGYDFHYILSSMYNPAAIKNILIRNNSFISFNFAHDGVKFSVKDSYSFLLCSLANASKAFLNEETFKKTDFPHHDLKTADDLYKVYKEWSSVNTEINHVVEKEKLLITSEHIVNFTKNDKSKTLIEWSKDYCRNDVLVLSKVWLEFKNAVEDIFNCELVDQTMTLAGLSYKLFQANMPFDVELRHPNKEDYFNMREALIGGRCISVNGIYKDVLCLDVKSLYPASMAFYDQPYGSFKRVSSRPKDELGIYYVRVTPNRNNKSNFFPIRSHNKITYNNFEESTYIAWYTNVDIDIGLSEGHNIEYIPFDSYGNIGYSWSKKGKIFEKYIKDVLYKLKIKYEKQNNKVKRNVIKKIMNSLWGKFAQKWVNFEYFIKSEDDIDFESEEAYKIWDTDFMLIKKIKESTYSSKPIQNGVFTLSWARYHMKSIWDAGAKEGAECIYSDTDSIFVHKEHFKKNAKFMLNGLKVPIIGSEVGQLELECEFDKLLCAGKKQYMGFYTYFQDGKPCIKEKKRFKGIPSNYIIPELYAHLLSGADKEAKIQFLKFRREWGSVKGYIENKTVKAT | 1064.79 a.u. and 1192.83 a.u. | – |
| TP-DNAP1-4-2: TP-DNAP1 variant (L477V, L640Y, I777K, W814N), encoded by SEQ ID NO:11 (protein, listed as Kluyveromyces lactis) MDYKDKALNDLRNVYADFDSLPLDFRQILIKDRATLLQKEDVEKKILERQEDAKKYAEYLKQSEIPERISLPNIKRHKGVSISFEETSEDMVLEPRPFIFDGLNIRCFRRETIFSLKNKILNMVKESSSFKNVSRQSVSFMYFKIFNKGKVIASTKSVNIYEDKIDERLEDLCNNFDDVLKKIIDVTYGYESLFVSETYSYVIFYAKSIYFPQPRCVNNWGNNIPNILTFDSFKLFTANKNNVSCIKQCSRFLWQKDFNTLEEMIEYKNGNICIVTPQLHINDVRDIKSFNDIRLYSESPIKTFSVIDNTITYLFYFKEHLGVIFNITKSRHDRRVTKFSPLSKFSDVKNITVCFDIESYFDPEKESNQVNIPFICCASIIYNKVIGNIVDFEGRDCVAQMIEYVVDICGELNISSVELIAHNGGGYDFHYILSSMYNPAAIKNILIRNNSFISFNFAHDGVKFSVKDSYSFLLCSVANASKAFLNEETFKKTDFPHHDLKTADDLYKVYKEWSSVNTEINHVVEKEKLLITSEHIVNFTKNDKSKTLIEWSKDYCRNDVLVLSKVWLEFKNAVEDIFNCELVDQTMTLAGLSYKLFQANMPFDVELRHPNKEDYFNMREALIGGRCISVNGIYKDVLCYDVKSLYPASMAFYDQPYGSFKRVSSRPKDELGIYYVRVTPNRNNKSNFFPIRSHNKITYNNFEESTYIAWYTNVDIDIGLSEGHNIEYIPFDSYGNIGYSWSKKGKIFEKYIKDVLYKLKIKYEKQNNKVKRNVIKKIMNSLWGKFAQKWVNFEYFIKSEDDIDFESEEAYKINDTDFMLIKKIKESTYSSKPIQNGVFTLSWARYHMKSIWDAGAKEGAECIYSDTDSIFVHKEHFKKNAKFMLNGLKVPIIGSEVGQLELECEFDKLLCAGKKQYMGFYTYFQDGKPCIKEKKRFKGIPSNYIIPELYAHLLSGADKEAKIQFLKFRREWGSVKGYIENKTVKAT | – | mKate2 fluorescence (a.u.) (L640Y, I777K, W614N): 288.24 a.u. and 233.35 a.u. |
| I777K, L900S: TP-DNAP1 variant, encoded by SEQ ID NO:7 (protein, listed as Kluyveromyces lactis) MDYKDKALNDLRNVYADFDSLPLDFRQILIKDRATLLQKEDVEKKILERQEDAKKYAEYLKQSEIPERISLPNIKRHKGVSISFEETSEDMVLEPRPFIFDGLNIRCFRRETIFSLKNKILNMVKESSSFKNVSRQSVSFMYFKIFNKGKVIASTKSVNIYEDKIDERLEDLCNNFDDVLKKIIDVTYGYESLFVSETYSYVIFYAKSIYFPQPRCVNNWGNNIPNILTFDSFKLFTANKNNVSCIKQCSRFLWQKDFNTLEEMIEYKNGNICIVTPQLHINDVRDIKSFNDIRLYSESPIKTFSVIDNTITYLFYFKEHLGVIFNITKSRHDRRVTKFSPLSKFSDVKNITVCFDIESYFDPEKESNQVNIPFICCASIIYNKVIGNIVDFEGRDCVAQMIEYVVDICGELNISSVELIAHNGGGYDFHYILSSMYNPAAIKNILIRNNSFISFNFAHDGVKFSVKDSYSFLLCSLANASKAFLNEETFKKTDFPHHDLKTADDLYKVYKEWSSVNTEINHVVEKEKLLITSEHIVNFTKNDKSKTLIEWSKDYCRNDVLVLSKVWLEFKNAVEDIFNCELVDQTMTLAGLSYKLFQANMPFDVELRHPNKEDYFNMREALIGGRCISVNGIYKDVLCLDVKSLYPASMAFYDQPYGSFKRVSSRPKDELGIYYVRVTPNRNNKSNFFPIRSHNKITYNNFEESTYIAWYTNVDIDIGLSEGHNIEYIPFDSYGNIGYSWSKKGKIFEKYIKDVLYKLKIKYEKQNNKVKRNVIKKIMNSLWGKFAQKWVNFEYFIKSEDDIDFESEEAYKIWDTDFMLIKKIKESTYSSKPIQNGVFTLSWARYHMKSIWDAGAKEGAECIYSDTDSIFVHKEHFKKNAKFMLNGLKVPIIGSEVGQSELECEFDKLLCAGKKQYMGFYTYFQDGKPCIKEKKRFKGIPSNYIIPELYAHLLSGADKEAKIQFLKFRREWGSVKGYIENKTVKAT | 601.91 a.u. and 617.55 a.u. | – |
| L474W, L640Y, I777K, W814N: TP-DNAP1 variant, encoded by SEQ ID NO:9 (protein, listed as Kluyveromyces lactis) MDYKDKALNDLRNVYADFDSLPLDFRQILIKDRATLLQKEDVEKKILERQEDAKKYAEYLKQSEIPERISLPNIKRHKGVSISFEETSEDMVLEPRPFIFDGLNIRCFRRETIFSLKNKILNMVKESSSFKNVSRQSVSFMYFKIFNKGKVIASTKSVNIYEDKIDERLEDLCNNFDDVLKKIIDVTYGYESLFVSETYSYVIFYAKSIYFPQPRCVNNWGNNIPNILTFDSFKLFTANKNNVSCIKQCSRFLWQKDFNTLEEMIEYKNGNICIVTPQLHINDVRDIKSFNDIRLYSESPIKTFSVIDNTITYLFYFKEHLGVIFNITKSRHDRRVTKFSPLSKFSDVKNITVCFDIESYFDPEKESNQVNIPFICCASIIYNKVIGNIVDFEGRDCVAQMIEYVVDICGELNISSVELIAHNGGGYDFHYILSSMYNPAAIKNILIRNNSFISFNFAHDGVKFSVKDSYSFLWCSLANASKAFLNEETFKKTDFPHHDLKTADDLYKVYKEWSSVNTEINHVVEKEKLLITSEHIVNFTKNDKSKTLIEWSKDYCRNDVLVLSKVWLEFKNAVEDIFNCELVDQTMTLAGLSYKLFQANMPFDVELRHPNKEDYFNMREALIGGRCISVNGIYKDVLCYDVKSLYPASMAFYDQPYGSFKRVSSRPKDELGIYYVRVTPNRNNKSNFFPIRSHNKITYNNFEESTYIAWYTNVDIDIGLSEGHNIEYIPFDSYGNIGYSWSKKGKIFEKYIKDVLYKLKIKYEKQNNKVKRNVIKKIMNSLWGKFAQKWVNFEYFIKSEDDIDFESEEAYKINDTDFMLIKKIKESTYSSKPIQNGVFTLSWARYHMKSIWDAGAKEGAECIYSDTDSIFVHKEHFKKNAKFMLNGLKVPIIGSEVGQLELECEFDKLLCAGKKQYMGFYTYFQDGKPCIKEKKRFKGIPSNYIIPELYAHLLSGADKEAKIQFLKFRREWGSVKGYIENKTVKAT | – | mKate2 fluorescence (a.u.) (L640Y, I777K): 298.97 a.u. and 180.05 a.u. |
